Results of single-concentration screens

Amino acid sequences for entries named in this document (tags omitted).
UniProt P9WFT3, whole entry: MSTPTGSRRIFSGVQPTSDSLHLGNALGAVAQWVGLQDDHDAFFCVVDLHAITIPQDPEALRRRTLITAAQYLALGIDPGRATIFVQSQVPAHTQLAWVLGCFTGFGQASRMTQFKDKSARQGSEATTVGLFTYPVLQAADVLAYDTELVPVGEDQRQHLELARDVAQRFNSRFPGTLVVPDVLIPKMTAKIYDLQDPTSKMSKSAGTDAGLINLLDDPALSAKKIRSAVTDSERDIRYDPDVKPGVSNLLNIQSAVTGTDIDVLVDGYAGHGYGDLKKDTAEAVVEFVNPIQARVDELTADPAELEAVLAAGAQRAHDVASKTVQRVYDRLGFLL
UniProt P9WNZ1, whole entry: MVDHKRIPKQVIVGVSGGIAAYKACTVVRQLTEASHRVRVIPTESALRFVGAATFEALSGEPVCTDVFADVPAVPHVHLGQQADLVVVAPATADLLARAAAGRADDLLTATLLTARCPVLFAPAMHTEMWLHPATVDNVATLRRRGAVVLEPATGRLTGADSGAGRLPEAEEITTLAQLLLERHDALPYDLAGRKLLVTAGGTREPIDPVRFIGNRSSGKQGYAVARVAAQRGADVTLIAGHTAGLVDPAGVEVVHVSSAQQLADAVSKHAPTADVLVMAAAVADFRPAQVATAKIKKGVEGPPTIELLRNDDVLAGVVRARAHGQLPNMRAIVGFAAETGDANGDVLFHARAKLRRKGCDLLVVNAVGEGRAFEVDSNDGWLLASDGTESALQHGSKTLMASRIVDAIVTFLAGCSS

Results are given as percent effect.
The record does not define 0% and 100%; most values in the screen are far below 50% and negative numbers occur (in some assays of this library far below -100).
Compounds were drawn at random from those tested, without regard to their results.
A dash means the value is not listed here; it may have been measured.

MtTrpRS: 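Tryptophan-tRNA ligase, Mycobacterium tuberculosis (UniProt P9WFT3). Enzyme assay of tryptophanyl-tRNA synthetase; the read-out is not stated. Tested at 10 µM. Direction is not recorded; retested compounds ran higher, which suggests that high means inhibition. About 65,000 compounds were tested under these conditions; 0.098% (about 64) showed 50% or more at least once.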
CoaBC: 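Enzyme assay of CoaBC with a phosphate dye (Biomol Green) read at 650 nm. Target: Coenzyme A biosynthesis protein CoaBC, Mycobacterium tuberculosis (UniProt P9WNZ1). Compounds at 30 µM. Direction is inferred from only a few compounds that gave an IC50; most scored high, so higher reads as stronger inhibition. Most strong results did not repeat in a second test. About 67,000 compounds were tested under these conditions; 0.06% (about 40) showed 50% or more at least once.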

SMILES	MtTrpRS	CoaBC
COc1cc2c(cc1OC)CN(C(=O)NC(C)c1nncn1C)CC2 (configuration not stated)	4.768	9.146
COCC1CCN(C(=O)c2cc(-c3ccco3)nc3c(Cl)cccc23)C1 (configuration not stated)	1.528	-1.951
CC(NC(=O)N1CCc2sccc2C1)c1nncn1C (configuration not stated)	1.589	9.39
CCOCC1CN(c2ccc(C)nn2)Cc2cnn(CC)c21 (configuration not stated)	-	5.122
O=C(c1ccno1)N1CCCC(c2ncncc2-c2ccncc2)C1 (configuration not stated)	-	1.115
CCNc1cc2c(nn1)CCN(C(=O)CCc1c(C)noc1C)C2	13.57	3.959
O=C(CC1COCCN1)NCCc1noc(-c2ccccc2)n1 (configuration not stated)	-0.289	0.4348
CC(=O)N1CCCN(CCCc2ccccc2)CC1	-5.491	-2.609
CC(C)(C)c1nnc(NCc2ccc(F)cc2)o1	-6.049	-1.138
COc1ccc(-c2nc(CN(C)Cc3nncn3C)c(C)o2)c(C)c1C	3.399	-1.139
COCCCNC(=O)CN(C)C(C)c1nc(C(C)C)no1 (configuration not stated)	1.468	1.157
NS(=O)(=O)c1ccc(NC(=O)CSc2ccc3c(c2)CCC3)cc1	-1.313	-0.207
Clc1cc(NCc2ccncc2)nc2[nH]ccc12	8.11	2.886
Cc1cc(CN(C)C(=O)NC(C)c2nncn2C)no1 (configuration not stated)	-1.706	4.219
CCc1nc(-c2ccnc(N3CCNCC3)n2)no1	-8.006	5.524
Cc1cnc(N)c(C(=O)C2CCN(C(=O)c3cnc(C)cn3)CC2)c1	-	1.611
CCOCc1cncc2c1CCN(S(=O)(=O)c1ccccc1)C2	-0.7757	10
Cn1ccnc(Sc2ccccc2)c1=O	-2.089	5.058
COc1cc(C(=O)N(C)Cc2nccn2CC(F)(F)F)ccc1C	8.312	-8.827
CC(C)N(CC1CCCN(Cc2ccon2)C1)C(=O)OC(C)(C)C (configuration not stated)	-6.101	10.33
CCN1CCC(NC(=O)CN2CCc3c(ncn3C)C2)CC1	-2.242	8.355
Cc1ccc2cc(C(=O)N3CCCN(C)CC3)ccc2n1	-4.749	-1.408
CC(C)c1cc(NCC(C)N2CCCC2)n2nccc2n1 (configuration not stated)	-3.947	1.919
CC(=O)NCC1CCN(CC2CCOc3ccccc3C2)CC1 (configuration not stated)	-1.517	2.11
c1ccc(CCCN2CC[C@H](c3nnc(-c4cccnc4)o3)C2)cc1	-0.3765	14.22
COCC1CCCCN1Cc1nc(-c2ccoc2)oc1C (configuration not stated)	2.391	-0.6031
O=C(Cc1ccc2c(c1)OCO2)N1CCCN(c2ccccc2)CC1	4.852	-0.6452
O=S(=O)(Nc1cnn(C2CCOCC2)c1)c1ccc2c(c1)CCO2	1.433	0.1267
Cc1nn(CC(=O)N2CCCC2Cn2cccn2)c(C)c1Cl (configuration not stated)	14.82	14.7
Cc1ccc(CN(C(=O)NCc2nnc3n2CCCCC3)C2CC2)o1	-7.848	4.808
CC(C)CC(=O)N1CC(=O)c2sc(Nc3ccc(F)cc3)nc2C1	-	3.976
N#Cc1ncn(CCC(=O)Nc2ccc(F)c(F)c2)n1	-0.2945	6.3
CN(C)C(=O)CCc1cncc(C2CCCN2Cc2ccccn2)n1 (configuration not stated)	-	7.767
COc1c(CNCc2ccc(S(C)(=O)=O)cc2)c(C)nn1C	1.193	-5.898
O=C(c1cc(-n2cccn2)ccn1)N1CCOc2ncccc21	2.018	6.25
O=C(NCC1CCOC1)c1cc(-c2ccccc2Cl)[nH]n1 (configuration not stated)	-0.4105	6.02
COc1nn(C)cc1C(=O)NCC(=O)NCc1ccccn1	-5.395	-1.48
O=C(COCC1CC1)N1CCCC(n2cccn2)C1 (configuration not stated)	-3.216	7.311
O=C(c1c2c(NCC3CC3)ncnc2n2ccccc12)N1CCCC1	-2.525	-6.721
CCc1cc(N(C)Cc2noc(CC(C)C)n2)ncn1	-2.349	8.395
CO[C@H]1CCN(Cc2nccs2)C[C@@H]1Cc1ccccc1	-3.374	2.792
CCNc1nc(-c2cccnc2)c(-c2ccnc(N3CCCC3)n2)s1	-	5.181
CC1(CCNC(=O)NCc2ccsc2)OCCO1	-1.312	-
CCCNC(=O)Cc1c(C)nc2c(c1C)c(=O)[nH]n2C	-1.432	-0.3654
CN(C)C(=O)CN1CCC2(CC1)C[C@@H](O)[C@H](c1ccccc1)NC2=O	2.667	8.282
COC(=O)CNc1ccc(-c2nc(Cc3ccc(OC)cc3)no2)cn1	2.107	0.2439
Cc1cc(C2CCCN2C(=O)NCc2cccnc2)on1 (configuration not stated)	-1.774	-2.583
Cc1nonc1NC(=O)C1SCCc2sccc21 (configuration not stated)	5.263	-3.415
CCc1c(C)nc2n(c1=O)CC(C(=O)Nc1ccccc1F)CS2 (configuration not stated)	2.536	2.155
CC(CN1CCCC1=O)NC(=O)c1cc(=O)[nH]c2ccc(Cl)cc12 (configuration not stated)	2.571	2.689
OC(CN1CCN(Cc2cccc(F)c2)CC1)C1CC1 (configuration not stated)	3.127	2.372
CC(c1nc(-c2ccccc2)no1)N1CC(n2cccn2)C1 (configuration not stated)	-3.931	3.548
O=C(NCc1ccco1)[C@H]1CC[C@@H]2[C@@H](CCN2Cc2nccs2)O1	-0.4016	2.121
Cc1nc(CN2CCN(C(=O)CCc3nc(C(C)(C)C)no3)CC2)cs1	1.364	10.06
NC(=O)N1CCCC(C(=O)N2CCN(c3nsc4ccccc34)CC2)C1 (configuration not stated)	-7.831	4.198
O=C1CC(c2ccc(F)c(F)c2)c2snc(C(=O)O)c2N1 (configuration not stated)	3.618	-0.4038
Cc1ccc(CCNc2nc(-c3ccncc3)nc3c2CCNCC3)o1	-4.503	-16.82
Cc1ccc2[nH]c(C3CCN(C)CC3)nc2c1	-0.7236	3.804

Some entries from above, unchanged:

SMILES	MtTrpRS	CoaBC
O=C(c1cc(-n2cccn2)ccn1)N1CCOc2ncccc21	2.018	6.25
CCCNC(=O)Cc1c(C)nc2c(c1C)c(=O)[nH]n2C	-1.432	-0.3654
Cc1nc(CN2CCN(C(=O)CCc3nc(C(C)(C)C)no3)CC2)cs1	1.364	10.06
Cc1ccc2cc(C(=O)N3CCCN(C)CC3)ccc2n1	-4.749	-1.408
CCOCc1cncc2c1CCN(S(=O)(=O)c1ccccc1)C2	-0.7757	10
CC1(CCNC(=O)NCc2ccsc2)OCCO1	-1.312	-

Source: ChEMBL document CHEMBL3988442, “University of Dundee, Small-Polar-MMV Screening Library” (2021).